Measured data: PubChem BioAssay AID1053208 (Peter MacCallum Cancer Centre, 2014)
The whole screen tested about 17,000 reagents; below is a random part of them. 788 of all reagents (4.7%) were called active. 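Calls rest on z-score classes alone; an extra cut-off of viability at most 70% of control was not applied to them.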 The numbers tell different reagents against one gene apart. Not all columns of the deposit are shown.

Purpose: 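Genes whose silencing cuts survival of bone tumour cells only with doxorubicin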 (primary screen)
Cells: mouse osteosarcoma cells, early-passage culture from an engineered mouse model of fibroblastic bone tumour
Knock-down reagent: siRNA pool against mouse genes, 40 nM
Duration: about 120 h (48 h before drug, then 72 h with drug)
Challenge: doxorubicin 100 nM for 72 h, roughly 30-40% inhibitory dose
Measurement: 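Luminescent ATP signal taken as viability with or without 100 nM doxorubicin for 72 h; mean of two wells set against non-targeting siRNA and turned into robust z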
Reading the numbers: viability z-score with doxorubicin: higher = more viable cells under doxorubicin; viability z-score without drug: higher = more viable cells with knock-down alone
Call rule: 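Called active if knock-down leaves viability unchanged without drug (z within -2 to 2) but lowers it with doxorubicin (z at or under -2)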

Which result is listed for Osgepl1 (O-sialoglycoprotein endopeptidase-like 1)?
combined z-score class: low cell count without drug only; viability z-score with doxorubicin: -1.57; viability z-score without drug: -2.19; Call: inactive

For Vim (vimentin), how do the results read?
combined z-score class: no change with or without drug; viability z-score with doxorubicin: -0.22; viability z-score without drug: 0.84; Call: inactive

What did the screen give for Ttc3 (tetratricopeptide repeat domain 3)?
combined z-score class: no change with or without drug; viability z-score with doxorubicin: -1.35; viability z-score without drug: 0.34; Call: inactive

For Galnt6 (polypeptide N-acetylgalactosaminyltransferase 6), how do the results read?
combined z-score class: no change with or without drug; viability z-score with doxorubicin: 0.45; viability z-score without drug: -0.17; Call: inactive

With Il5ra (interleukin 5 receptor, alpha), how do the results read?
combined z-score class: no change with or without drug; viability z-score with doxorubicin: -0.11; viability z-score without drug: -0.84; Call: inactive

For Or6z3 (olfactory receptor family 6 subfamily Z member 3), what was measured?
combined z-score class: no change with or without drug; viability z-score with doxorubicin: -0.9; viability z-score without drug: 0.67; Call: inactive

For Fmo1 (flavin containing monooxygenase 1), how do the results read?
combined z-score class: no change with or without drug; viability z-score with doxorubicin: -0.9; viability z-score without drug: 0.67; Call: inactive

With Cd38 (CD38 antigen), how do the results read?
combined z-score class: no change with or without drug; viability z-score with doxorubicin: -0.9; viability z-score without drug: -0.34; Call: inactive

For Pcna (proliferating cell nuclear antigen), how do the results read?
combined z-score class: no change with or without drug; viability z-score with doxorubicin: -0.34; viability z-score without drug: -0.51; Call: inactive

With Rnase4 (ribonuclease, RNase A family 4), what was measured?
combined z-score class: no change with or without drug; viability z-score with doxorubicin: 1.8; viability z-score without drug: -1.35; Call: inactive

For Slc26a7, what does the deposit list?
combined z-score class: high cell count with doxorubicin only; viability z-score with doxorubicin: 2.02; viability z-score without drug: 1.85; Call: inactive

With Casp3 (caspase 3), how do the results read?
combined z-score class: no change with or without drug; viability z-score with doxorubicin: 0.22; viability z-score without drug: 0.51; Call: inactive

What did the screen give for Ino80c (INO80 complex subunit C)?
combined z-score class: no change with or without drug; viability z-score with doxorubicin: 0; viability z-score without drug: -1.85; Call: inactive

What did the screen give for Apol10a (apolipoprotein L 10A)?
combined z-score class: no change with or without drug; viability z-score with doxorubicin: -0.56; viability z-score without drug: 0.17; Call: inactive

How did the screen score Dyrk1a?
combined z-score class: no change with or without drug; viability z-score with doxorubicin: -1.57; viability z-score without drug: -0.17; Call: inactive

For Prl7c1 (prolactin family 7, subfamily c, member 1), what was measured?
combined z-score class: no change with or without drug; viability z-score with doxorubicin: 0.45; viability z-score without drug: 1.01; Call: inactive

For Rhbdd2 (rhomboid domain containing 2) #1, how do the results read?
combined z-score class: no change with or without drug; viability z-score with doxorubicin: -0.67; viability z-score without drug: 0.51; Call: inactive

With Rhbdd2 (rhomboid domain containing 2) #2, what was measured?
combined z-score class: no change with or without drug; viability z-score with doxorubicin: -1.35; viability z-score without drug: -0.17; Call: inactive

For Gemin6 (gem nuclear organelle associated protein 6), what does the deposit list?
combined z-score class: no change with or without drug; viability z-score with doxorubicin: 0.22; viability z-score without drug: 1.18; Call: inactive

What is on record for Cnnm2 (cyclin M2)?
combined z-score class: no change with or without drug; viability z-score with doxorubicin: 0.22; viability z-score without drug: -0.51; Call: inactive

How did the screen score Tiparp (TCDD-inducible poly(ADP-ribose) polymerase)?
combined z-score class: no change with or without drug; viability z-score with doxorubicin: 0.67; viability z-score without drug: 1.18; Call: inactive

Which result is listed for Afm (afamin)?
combined z-score class: no change with or without drug; viability z-score with doxorubicin: 0.67; viability z-score without drug: 0.51; Call: inactive

With Pvalb (parvalbumin), what does the deposit list?
combined z-score class: no change with or without drug; viability z-score with doxorubicin: 0.34; viability z-score without drug: 0; Call: inactive

What did the screen give for Hspbp1?
combined z-score class: no change with or without drug; viability z-score with doxorubicin: 0.11; viability z-score without drug: 0.51; Call: inactive

For Mmp25 (matrix metallopeptidase 25), what does the deposit list?
combined z-score class: no change with or without drug; viability z-score with doxorubicin: 0.45; viability z-score without drug: 1.18; Call: inactive

What is on record for Aqp4 (aquaporin 4)?
combined z-score class: no change with or without drug; viability z-score with doxorubicin: -1.35; viability z-score without drug: -0.84; Call: inactive

For Gabrd (gamma-aminobutyric acid (GABA) A receptor, subunit delta), what does the deposit list?
combined z-score class: no change with or without drug; viability z-score with doxorubicin: -1.8; viability z-score without drug: 0; Call: inactive

For Taf7l (TATA-box binding protein associated factor 7 like), how do the results read?
combined z-score class: no change with or without drug; viability z-score with doxorubicin: -0.9; viability z-score without drug: -0.17; Call: inactive

2 of these entries, set out differently:
{"gene knocked down":"Dyrk1a","reagent":1,"combined z-score class":"no change with or without drug","viability z-score with doxorubicin":-1.57,"viability z-score without drug":-0.17,"Call":"inactive"}
{"gene knocked down":"Prl7c1 (prolactin family 7, subfamily c, member 1)","reagent":1,"combined z-score class":"no change with or without drug","viability z-score with doxorubicin":0.45,"viability z-score without drug":1.01,"Call":"inactive"}
